In paper PMC3459802:
For at least one entry, the source does not settle the construct or the ends of the probe. Results from cells or extracts need not show a direct contact.

Test system: SMAR1 (Rin 5f lysate) (rat (Rin 5f cells))
Experiment: CNBr pull-down, western blot
Details: pull-down: 20 mM HEPES pH 7.9, 1 mM EDTA, 30 mM KCl, 100 mM NaCl, 1 mM DTT, 25% glycerol, 0.2% Tween-20, room temp; protein in an extract; label: CNBr-Sepharose coupled

“TAAAGTGTAAAGCCTGGGGTGCCTAATGAGATGAGCTAACTCACATTAATT (double strand) [SMAR1 consensus oligo (double stranded)]”: binds.
